In PubChem BioAssay AID504444 (National Center for Advancing Translational Sciences (NCATS), 2011):
Out of some 360,000 compounds screened, about 7,500 (2.1%) were called active. This list was built around the results that the source calls inconclusive (neither active nor inactive); the mix of calls is not that of the screen. Calls come from the whole dose curve; as a rule, active = well fitted inhibition curve with a large enough effect; inconclusive = small, poorly fitted or top-dose-only effect, or effect the other way; inactive = flat fitted curve, though single readings scatter. A potency beside an inconclusive call is a rough fit, not a confirmed value.

assay: Nrf2 qHTS screen for inhibitors; settings: A549 ARE-Fluc reporter, luciferase luminescence, 18-24 h; activity change, negative = inhibition: at 46 µM (top of the series); note: nearly all actives have a fitted effect of over 60% in size
How it was run: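 Nrf2 activity is the BugLite luminescence, read 15 min after reagent at room temperature, following CellTiter-Fluor cytotoxicity readout (30 min, 37C). Compound titrations were applied for 18-24 h to 5000 A549 ARE_Fluc cells/well in 5% FBS OPTI-MEM.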
% is set by controls: 0 for no effect and ±100 for the full control effect; potency is the fitted concentration of half-maximal effect.

SMILES	activity change, negative = inhibition	Potency
O=S(=O)(c1ccccc1)c1ccc(NCc2ccco2)cc1	inactive: -8.67%	–
Cc1cc2occ(CC(=O)N(CCC(C)C)c3c(N)n(Cc4ccccc4)c(=O)[nH]c3=O)c2cc1C	–	inconclusive: 0.231 µM [falling, full curve, poor fit]
CCOC(=O)C1CCCN(C(=O)c2cc(S(=O)(=O)N3CCCCC3)ccc2Cl)C1 (configuration not stated)	–	inconclusive: 29.1 µM [falling, partial curve, poor fit]
Cc1onc(-c2ccccc2)c1C(=O)N/N=C/c1ccc(O)c([N+](=O)[O-])c1	–	inconclusive: 1.84 µM [falling, full curve]
NS(=O)(=O)c1ccc(NC(=S)Nc2ccc(S(=O)(=O)N3CCCC3)cc2)cc1	inactive: -5.98%	–
Cc1cc(Cl)ccc1NC(=O)CN1CCC(C(O)(c2ccccc2)c2ccccc2)CC1	–	inconclusive: 2.91 µM [activator, partial curve]
CN(C)CC1CCC/C(=C\c2ccc(OC(=O)c3ccc(Cl)cc3)cc2)C1=O (configuration not stated)	–	inconclusive: 5.8 µM [falling, partial curve, poor fit]
CCN1C(=O)[C@H]2[C@@H](c3ccc(-c4cccc(Cl)c4)c(OC)c3)N3CCC[C@@]3(C(=O)OC)[C@H]2C1=O	–	inconclusive: 9.2 µM [falling, partial curve]
O=C(O)COc1ccccc1/C=N/NC(=O)C(O)c1ccccc1 (configuration not stated)	inactive: 4.71%	–
CCSc1nnc(NC(=O)c2nc(S(=O)(=O)Cc3ccc(F)cc3)ncc2Cl)s1	–	inconclusive: 18.4 µM [falling, single point]
COc1ccc(/C=C2\SC(=O)N(CCNC(=O)C3CSC4(C)CCC(=O)N34)C2=O)cc1 (configuration not stated)	–	inconclusive: 4.11 µM [activator, full curve, poor fit]
O=C(c1ccc(Cl)cc1)c1c[nH]c(C(=O)C(Cl)(Cl)Cl)c1	inactive: 20.6%	–
Cc1ccc(C)c(CSc2nc3[nH]ncc3c(=O)[nH]2)c1	–	inconclusive: 3.26 µM [activator, single point]
O=C1C=C(c2ccccc2)C[C@H](c2cccs2)[C@H]1n1nnc([N+](=O)[O-])n1	–	inconclusive: 20.6 µM [activator, single point]
COC(=O)c1sc(-c2ccccc2)cc1NC(=O)Nc1ccccc1Cl	inactive: -28.7%	–
Cc1cc(C)cc(Nc2nc3ccccc3nc2-n2nc(C)cc2C)c1	–	inconclusive: 0.517 µM [activator, full curve, poor fit]
CCOCCn1c(=NC(=O)c2ccc(S(=O)(=O)N3CCOCC3)cc2)sc2cc(S(N)(=O)=O)ccc21	–	inconclusive: 20.6 µM [falling, single point]

An excerpt from above in order of formula weight, rising.
SMILES	activity change, negative = inhibition	Potency
Cc1cc(C)cc(Nc2nc3ccccc3nc2-n2nc(C)cc2C)c1	–	inconclusive: 0.517 µM [activator, full curve, poor fit]
Cc1onc(-c2ccccc2)c1C(=O)N/N=C/c1ccc(O)c([N+](=O)[O-])c1	–	inconclusive: 1.84 µM [falling, full curve]
O=C1C=C(c2ccccc2)C[C@H](c2cccs2)[C@H]1n1nnc([N+](=O)[O-])n1	–	inconclusive: 20.6 µM [activator, single point]
